This is one part of the list.

The target of this experiment is T1, OsSMF1 (Oryza sativa, UniProt Q6ZLB0 1-436).
T1 sequence: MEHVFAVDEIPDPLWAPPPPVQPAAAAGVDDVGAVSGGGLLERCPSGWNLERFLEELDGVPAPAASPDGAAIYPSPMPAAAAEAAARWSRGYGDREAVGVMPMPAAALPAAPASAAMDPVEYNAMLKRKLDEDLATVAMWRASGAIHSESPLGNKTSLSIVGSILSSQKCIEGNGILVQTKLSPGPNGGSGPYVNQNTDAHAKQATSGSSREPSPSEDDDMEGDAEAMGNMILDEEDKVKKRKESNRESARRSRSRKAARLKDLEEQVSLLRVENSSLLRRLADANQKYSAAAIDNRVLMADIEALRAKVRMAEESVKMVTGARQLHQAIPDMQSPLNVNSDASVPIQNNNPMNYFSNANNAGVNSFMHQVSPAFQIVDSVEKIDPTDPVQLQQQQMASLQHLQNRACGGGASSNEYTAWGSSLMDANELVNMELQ
The experiment can be described thus: protein-binding microarray (RPBM); PBS, 2% BSA, 51.3 ng/ul salmon testes DNA, 50 uM zinc acetate, 200 nM TF, 25 C, 1 h; high values mean tight binding. Conditions: protein: recombinant; tags: N-terminal polyhistidine and DsRed monomer fusion (pET32a); chain copies: 2; label: CyDye5-dUTP incorporated in the synthesized complementary strand; 3' TTTTT single-stranded linker to array surface; dsDNA, one strand shown. Summed up: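 A custom Agilent array was converted to double-stranded form by primer extension with Cy5-dUTP and blocked with 2% BSA. Protein at 200 nM in PBS with 2% BSA, salmon testes DNA and 50 µM zinc acetate was applied for 1 h at 25 °C, followed by washing. The proteins were polyhistidine–DsRed N-terminal fusions of transcription factors, expressed in E. coli BL21-CodonPlus and Ni–NTA-purified. The binding signal is per-feature fluorescence intensity (arbitrary units) from an Axon 4000B scanner.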
“ATTACATAGTACTCCTTCGTTTTATATTATCGTTAGATTTCGGAGTCACCTAGTGCAG”: the binding signal is 3160 fluorescence intensity (a.u.). The figure for “ACGCCGACGGTGCGGAGGCCATATATACGGCACCTGAACGCGGAGTCACCTAGTGCAG” is 3330 fluorescence intensity (a.u.). For “ATCTGTGGACGCCAACGTGGAGGATGACAGCAACCCCGGACGGAGTCACCTAGTGCAG”, the binding signal was 5780 fluorescence intensity (a.u.). Then “GCTGTTCGATCTGGCTCTAGATTCGCCAAGATTCGTATTGCGGAGTCACCTAGTGCAG”, with 25000 fluorescence intensity (a.u.); and “CTCCCTCCCTTTCTCGCGTGTCGCGTCGTCCCCAAATCCGCGGAGTCACCTAGTGCAG”, with 3740 fluorescence intensity (a.u.). Then “ATAATAGCACATGTGGATATCTGTAGAATTCATTTCGTGTCGGAGTCACCTAGTGCAG”, with 3550 fluorescence intensity (a.u.); and “TTACTTTAGCTCTCATACGGTTGCGTTAGTCATGTAGGCACGGAGTCACCTAGTGCAG”, with 3150 fluorescence intensity (a.u.); and “CAGCAATGACACGGTTTGTAATCACAAGTTAATGTCTTCCCGGAGTCACCTAGTGCAG”, with 3500 fluorescence intensity (a.u.).

As for “CCATGCCAAGAATCTCGCTATCTCCCGACACAGTGTCTCTCGGAGTCACCTAGTGCAG”, the binding signal was 28400 fluorescence intensity (a.u.). Then “TCAAAATATGAATTATGACGTGGATTGTATTGTTTTCCTTCGGAGTCACCTAGTGCAG”, with 22700 fluorescence intensity (a.u.); and “GGGCGGCCAACGCATCTTCCTCTTCCTCTTCCTCCATCTCCGGAGTCACCTAGTGCAG”, with 3640 fluorescence intensity (a.u.). The figure for “CCTGTGGCTTCTTGTTCGCCGGGTTCAGCCGCATCCATGTCGGAGTCACCTAGTGCAG” is 27800 fluorescence intensity (a.u.). Then “GGTCCCTGGCCCACACTACTGACACACTACTATCAAGTTGCGGAGTCACCTAGTGCAG”, with 5120 fluorescence intensity (a.u.). “TGGGACCTGGCTTATTTCTCACCCAAAGCCATAACCATTGCGGAGTCACCTAGTGCAG”: the binding signal is 3280 fluorescence intensity (a.u.). Then “TCTTTCCTTATCTTGACCTGTCGTCAGCAAATGTGTCATTCGGAGTCACCTAGTGCAG”, with 8500 fluorescence intensity (a.u.). In the case of “AAAACGGTGACACATCAAGGTTGTTCAGTGAAACCTGGATCGGAGTCACCTAGTGCAG”, the binding signal was 3360 fluorescence intensity (a.u.). Then “CGCCGACGTCTACCTCCTCGACGACGTCTTCAGCGCCGTCCGGAGTCACCTAGTGCAG”, with 3210 fluorescence intensity (a.u.); and “AATGGGCCGAGAGCAGTGACGCGTTGAGCCAGATTCCGGTCGGAGTCACCTAGTGCAG”, with 3250 fluorescence intensity (a.u.). “TGGTCATTCTTCTTTGCCATGTTGGCATGTTGCACGGTACCGGAGTCACCTAGTGCAG”: the binding signal was 5260 fluorescence intensity (a.u.). On to “GCCAGCTGCCACGTGGGACAAAATCGGGGTCAAAACCACCCGGAGTCACCTAGTGCAG”, for which the binding signal was 12700 fluorescence intensity (a.u.).

As for “GCGCGTGCCCCACCCGTCATTGGCGTGGCGTGTGGTATGGCGGAGTCACCTAGTGCAG”, the binding signal was 3660 fluorescence intensity (a.u.). Then “ACATCTTCTTCACAAGGACCGGCATTGCGAGGGCGTGGCCCGGAGTCACCTAGTGCAG”, with 3220 fluorescence intensity (a.u.). As to “ATAGTACTTGTGTTTGATTTCGATTGAAGCCTATTCATTGCGGAGTCACCTAGTGCAG”, the binding signal is 3210 fluorescence intensity (a.u.). The figure for “GCCGACGAGAGGGAGCCGAAGGTCGACGTCGTGGCGACGCCGGAGTCACCTAGTGCAG” is 3930 fluorescence intensity (a.u.); for “GAGTATACGTTCCGATTCCATTTTCGAGAAAATAAAATGACGGAGTCACCTAGTGCAG” it is 11400 fluorescence intensity (a.u.). Then “CTTAGTGGTGGGTATAATATCTCGTCAGCTTCGCGCAAGCCGGAGTCACCTAGTGCAG”, with 5410 fluorescence intensity (a.u.); and “GGCAACAAGCTCCTACGCCGATGAGGTGGCCCAGCTTGTCCGGAGTCACCTAGTGCAG”, with 3380 fluorescence intensity (a.u.); and “GATTCGTTTGTGCACGGCCCAACGTGTCACGGAGCCCATTCGGAGTCACCTAGTGCAG”, with 12800 fluorescence intensity (a.u.).

Regarding “GCCAAGATTACGTGCAGCTGAACAAGTCCAGGTACACTTACGGAGTCACCTAGTGCAG”, the binding signal is 4310 fluorescence intensity (a.u.).

For “CGTGCGTACGTGATACTAGTGCGGTGGCGATCGAGCCACGCGGAGTCACCTAGTGCAG”, the binding signal was 3700 fluorescence intensity (a.u.). Then “CACCCCTAACCCAAAGACCAAGAAAATAATTATTATCATCCGGAGTCACCTAGTGCAG”, with 3350 fluorescence intensity (a.u.). Then “AAATCATGAAAATAACATAGTTCTTCAAATAGATGGTAGACGGAGTCACCTAGTGCAG”, with 3250 fluorescence intensity (a.u.); and “ACACTATTAATTGTTTTATTAGGTTTCAGACGTTATTTTGCGGAGTCACCTAGTGCAG”, with 3150 fluorescence intensity (a.u.); and “AAGCCACGGTTCCATACCAATAAATACTACTACTACGTTTCGGAGTCACCTAGTGCAG”, with 3250 fluorescence intensity (a.u.). Then “AATGTTTGACGTGTAACATATCCAATATTAAAGTTTGAGTCGGAGTCACCTAGTGCAG”, with 7340 fluorescence intensity (a.u.); and “CATATATATATATATAGACTTTGTATACGTGTATACAAAGCGGAGTCACCTAGTGCAG”, with 3860 fluorescence intensity (a.u.); and “AGCTGGTTATAATATGGACAAAATGCTGAATTGTTTGGCACGGAGTCACCTAGTGCAG”, with 31500 fluorescence intensity (a.u.). Take “GGACTCGTCCAGCACGACGCTGATGGATCTCATCACCTCGCGGAGTCACCTAGTGCAG”: the binding signal is 3630 fluorescence intensity (a.u.). The figure for “ATGCTGCCGACCGCCGCTGCCAACAAAGGAAGATAGAGTACGGAGTCACCTAGTGCAG” is 3870 fluorescence intensity (a.u.). The figure for “CCGTGCCCAGCCATAGGCCCAGGCATGGCCCAATAGTCATCGGAGTCACCTAGTGCAG” is 3280 fluorescence intensity (a.u.); for “AGCGCCCAAGGTGGAGACGTGGAGTTGGCTGTGGGAGCAGCGGAGTCACCTAGTGCAG” it is 4240 fluorescence intensity (a.u.); for “GGACCGTTGATTATACGTGGCACATCGCAGGTACGGTCCCCGGAGTCACCTAGTGCAG” it is 9800 fluorescence intensity (a.u.).

(Values after PMC7819943, “Rice protein-binding microarrays: a tool to detect cis-acting elements near promoter regions in rice”.)
